Measurements reported in US20150258059A1, “ANTIMICROBIAL AND RADIOPROTECTIVE COMPOUNDS” (BioDiem, Ltd, priority 2001, published 2015).
Values after ≈ are worked out from the molar mass of the structure shown.

Tested on: Aspergillus fumigatus
Experiment: M38-P microdilution MIC/MFC
Assay type: cell-based
Conditions: Table 16, 48 h, 35° C.

## C[C@@H]1[C@H](O)[C@@H](C)/C=C/C=C/C=C/C=C/C=C/C=C/C=C/[C@H](O[C@@H]2O[C@H](C)[C@@H](O)[C@H](N)[C@@H]2O)C[C@@H]2O[C@](O)(C[C@@H](O)C[C@@H](O)[C@H](O)CC[C@@H](O)C[C@@H](O)CC(=O)O[C@H]1C)C[C@H](O)[C@H]2C(=O)O [Amphotericin B]
  MIC: 1 µg/mL (≈ 1.08 µM)
